Values from PubChem BioAssay AID1259308 (NCATS, 2017)
Shown is an unselected part of about 59,000 reagents. About 1,510 of all reagents (2.6%) were called active. 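Calls use total luciferase alone and ignore viability, so some active siRNAs may act by altering cell number.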 Entries without a mark were called inactive. Further read-outs or replicates are left out here.

Purpose: 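Candidate targets for better recombinant protein yield in mammalian cells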 (primary screen)
Cell system: human HEK293 embryonic kidney cells stably expressing firefly luciferase (HEK-CMV-Luc2-Hygro)
Reagent: single siRNA against human genes, 0.8 pmol siRNA per well
Timing: 72 h
Measured: 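Reporter luminescence and viable-cell signal on separate replicate plates, given as percent of non-targeting control and median/MAD z-scores, plus per-cell luciferase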
Direction: total luciferase, z-score and total luciferase, % of control: higher = more reporter protein produced
Rule for the call: 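An siRNA counts as active if its total luciferase robust z-score exceeds 3; genes with two or more such siRNAs out of three were retested with fresh siRNAs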
Calls: active = raised luciferase; inactive = no rise

target gene | PubChem SID | total luciferase, z-score | total luciferase, % of control
RLN2 | SID160715923 | 0.105 | 84
RLN2 | SID160715924 | -1.32 | 55.6
RLN2 | SID160715925 | -1.52 | 51.8
CTSB | SID160750553 | 0.215 | 86.2
CTSB | SID160750564 | -0.112 | 79.7
CTSB | SID160750576 | -1.67 | 48.7
LIMD1-AS1 | SID160725762 | 0.623 | 94.3
LIMD1-AS1 | SID160725763 | -0.0266 | 81.4
LIMD1-AS1 | SID160725764 | 0.279 | 87.4
GGN | SID160724909 | -0.652 | 68.9
GGN | SID160724910 | 2.42 | 130
GGN | SID160724911 | 2.32 | 128
STK35 | SID160757954 | -0.32 | 75.5
STK35 | SID160757956 | 2.61 | 134
STK35 | SID160757957 | 0.31 | 88
YAE1 | SID160745487 | -0.00425 | 81.8
YAE1 | SID160745488 | -0.429 | 73.3
YAE1 | SID160745489 | -0.899 | 64
TMEM176A | SID160733603 | 0.699 | 95.8
TMEM176A | SID160743650 | 1.2 | 106
TMEM176A | SID160743651 | 0.374 | 89.3
RPL7P56 | SID160772288 | 0.254 | 86.9
RPL7P56 | SID160772289 | -1.56 | 50.8
RPL7P56 | SID160772292 | -3.41 | 14
VCPKMT | SID160734935 | -2.01 | 42
VCPKMT | SID160748991 | -0.626 | 69.4
VCPKMT | SID160748993 | 1.21 | 106
CASKIN2 | SID160746152 | -1.38 | 54.5
CASKIN2 | SID160746155 | 0.577 | 93.4
CASKIN2 | SID160746156 | 0.765 | 97.1
PPP6R1 | SID160732284 | 0.901 | 99.8
PPP6R1 | SID160732294 | 0.664 | 95.1
PPP6R1 | SID160732305 | 0.00821 | 82
C5orf47 | SID160757251 | -0.527 | 71.4
C5orf47 | SID160757252 | 0.496 | 91.7
C5orf47 | SID160757253 | 1.38 | 109
ZBTB8OSP2 | SID160727250 | 0.0162 | 82.2
ZBTB8OSP2 | SID160734651 | 0.362 | 89.1
ZBTB8OSP2 | SID160773271 | 0.482 | 91.5
EMC8 | SID160728186 | -0.441 | 73.1
EMC8 | SID160728187 | -0.575 | 70.5
EMC8 | SID160732271 | -1.6 | 50.1
DLD | SID160754512 | -0.372 | 74.5
DLD | SID160754522 | -0.718 | 67.6
DLD | SID160754532 | -1.15 | 59.1
MIIP | SID160733700 | -1.4 | 54
MIIP | SID160747156 | 1.31 | 108
MIIP | SID160747157 | 1.62 | 114
SLC18A2 | SID160716967 | 0.185 | 85.6
SLC18A2 | SID160716968 | -0.0661 | 80.6
SLC18A2 | SID160716970 | 0.078 | 83.4
OR13J1 | SID160725319 | -0.951 | 63
OR13J1 | SID160725320 | -0.393 | 74.1
OR13J1 | SID160766752 | -0.206 | 77.8
HOATZ | SID160766902 | 0.246 | 86.8
HOATZ | SID160766903 | -0.386 | 74.2
HOATZ | SID160766904 | -1.33 | 55.5
TMC3 | SID160764584 | -1.56 | 50.9
TMC3 | SID160764585 | 2.4 | 130
TMC3 | SID160764586 | 0.197 | 85.8
ATL3 | SID160737259 | 0.443 | 90.7
ATL3 | SID160737260 | -0.0251 | 81.4
ATL3 | SID160737261 | -0.68 | 68.4
LDLRAD1 | SID160765939 | 0.152 | 84.9
LDLRAD1 | SID160765940 | 0.796 | 97.7
LDLRAD1 | SID160765941 | 0.406 | 90
MGMT | SID160731230 | -0.839 | 65.2
MGMT | SID160777223 | 0.922 | 100
MGMT | SID160777224 | -0.979 | 62.4
KIAA0930 | SID160732754 | 0.17 | 85.3
KIAA0930 | SID160735984 | 0.829 | 98.4
KIAA0930 | SID160735985 | -0.343 | 75.1
PRR5 | SID160724465 | -0.508 | 71.8
PRR5 | SID160743906 | -1.19 | 58.1
PRR5 | SID160743907 | -0.139 | 79.1

Just “total luciferase, % of control” (8 entries from above):
VCPKMT [SID160734935]	42
VCPKMT [SID160748991]	69.4
VCPKMT [SID160748993]	106
CASKIN2 [SID160746152]	54.5
CASKIN2 [SID160746155]	93.4
CASKIN2 [SID160746156]	97.1
PPP6R1 [SID160732284]	99.8
PPP6R1 [SID160732294]	95.1
